Values of other authors, collected in patent publication US20230190687A1, “SODIUM BUTYRATE FOR USE IN THE PREVENTION OR TREATMENT OF RHINOVIRUS INFECTION” (priority 2020, published 2023).
At least one compound was matched to its structure with a doubt left.

Test system: cathelicidin
Conditions: Schauber et al 2003; Hase et al 2002; cited from earlier work

In the case of `CCCC(=O)O` [Butyrate], the cathelicidin production is listed as “increase cathelicidin production”.
